Data reported in paper PMC6451001.
These are yes or no findings as the source states them, for the method shown. Binding seen in cells or lysates may run through a third protein. Some entries that bind do so weakly or less than the wild type. For some of these results: Where a sequence is shown, tags or fusion partners need not be part of it.

Chains of the proteins cited; added tags and fusions are not shown.
UniProt O75376: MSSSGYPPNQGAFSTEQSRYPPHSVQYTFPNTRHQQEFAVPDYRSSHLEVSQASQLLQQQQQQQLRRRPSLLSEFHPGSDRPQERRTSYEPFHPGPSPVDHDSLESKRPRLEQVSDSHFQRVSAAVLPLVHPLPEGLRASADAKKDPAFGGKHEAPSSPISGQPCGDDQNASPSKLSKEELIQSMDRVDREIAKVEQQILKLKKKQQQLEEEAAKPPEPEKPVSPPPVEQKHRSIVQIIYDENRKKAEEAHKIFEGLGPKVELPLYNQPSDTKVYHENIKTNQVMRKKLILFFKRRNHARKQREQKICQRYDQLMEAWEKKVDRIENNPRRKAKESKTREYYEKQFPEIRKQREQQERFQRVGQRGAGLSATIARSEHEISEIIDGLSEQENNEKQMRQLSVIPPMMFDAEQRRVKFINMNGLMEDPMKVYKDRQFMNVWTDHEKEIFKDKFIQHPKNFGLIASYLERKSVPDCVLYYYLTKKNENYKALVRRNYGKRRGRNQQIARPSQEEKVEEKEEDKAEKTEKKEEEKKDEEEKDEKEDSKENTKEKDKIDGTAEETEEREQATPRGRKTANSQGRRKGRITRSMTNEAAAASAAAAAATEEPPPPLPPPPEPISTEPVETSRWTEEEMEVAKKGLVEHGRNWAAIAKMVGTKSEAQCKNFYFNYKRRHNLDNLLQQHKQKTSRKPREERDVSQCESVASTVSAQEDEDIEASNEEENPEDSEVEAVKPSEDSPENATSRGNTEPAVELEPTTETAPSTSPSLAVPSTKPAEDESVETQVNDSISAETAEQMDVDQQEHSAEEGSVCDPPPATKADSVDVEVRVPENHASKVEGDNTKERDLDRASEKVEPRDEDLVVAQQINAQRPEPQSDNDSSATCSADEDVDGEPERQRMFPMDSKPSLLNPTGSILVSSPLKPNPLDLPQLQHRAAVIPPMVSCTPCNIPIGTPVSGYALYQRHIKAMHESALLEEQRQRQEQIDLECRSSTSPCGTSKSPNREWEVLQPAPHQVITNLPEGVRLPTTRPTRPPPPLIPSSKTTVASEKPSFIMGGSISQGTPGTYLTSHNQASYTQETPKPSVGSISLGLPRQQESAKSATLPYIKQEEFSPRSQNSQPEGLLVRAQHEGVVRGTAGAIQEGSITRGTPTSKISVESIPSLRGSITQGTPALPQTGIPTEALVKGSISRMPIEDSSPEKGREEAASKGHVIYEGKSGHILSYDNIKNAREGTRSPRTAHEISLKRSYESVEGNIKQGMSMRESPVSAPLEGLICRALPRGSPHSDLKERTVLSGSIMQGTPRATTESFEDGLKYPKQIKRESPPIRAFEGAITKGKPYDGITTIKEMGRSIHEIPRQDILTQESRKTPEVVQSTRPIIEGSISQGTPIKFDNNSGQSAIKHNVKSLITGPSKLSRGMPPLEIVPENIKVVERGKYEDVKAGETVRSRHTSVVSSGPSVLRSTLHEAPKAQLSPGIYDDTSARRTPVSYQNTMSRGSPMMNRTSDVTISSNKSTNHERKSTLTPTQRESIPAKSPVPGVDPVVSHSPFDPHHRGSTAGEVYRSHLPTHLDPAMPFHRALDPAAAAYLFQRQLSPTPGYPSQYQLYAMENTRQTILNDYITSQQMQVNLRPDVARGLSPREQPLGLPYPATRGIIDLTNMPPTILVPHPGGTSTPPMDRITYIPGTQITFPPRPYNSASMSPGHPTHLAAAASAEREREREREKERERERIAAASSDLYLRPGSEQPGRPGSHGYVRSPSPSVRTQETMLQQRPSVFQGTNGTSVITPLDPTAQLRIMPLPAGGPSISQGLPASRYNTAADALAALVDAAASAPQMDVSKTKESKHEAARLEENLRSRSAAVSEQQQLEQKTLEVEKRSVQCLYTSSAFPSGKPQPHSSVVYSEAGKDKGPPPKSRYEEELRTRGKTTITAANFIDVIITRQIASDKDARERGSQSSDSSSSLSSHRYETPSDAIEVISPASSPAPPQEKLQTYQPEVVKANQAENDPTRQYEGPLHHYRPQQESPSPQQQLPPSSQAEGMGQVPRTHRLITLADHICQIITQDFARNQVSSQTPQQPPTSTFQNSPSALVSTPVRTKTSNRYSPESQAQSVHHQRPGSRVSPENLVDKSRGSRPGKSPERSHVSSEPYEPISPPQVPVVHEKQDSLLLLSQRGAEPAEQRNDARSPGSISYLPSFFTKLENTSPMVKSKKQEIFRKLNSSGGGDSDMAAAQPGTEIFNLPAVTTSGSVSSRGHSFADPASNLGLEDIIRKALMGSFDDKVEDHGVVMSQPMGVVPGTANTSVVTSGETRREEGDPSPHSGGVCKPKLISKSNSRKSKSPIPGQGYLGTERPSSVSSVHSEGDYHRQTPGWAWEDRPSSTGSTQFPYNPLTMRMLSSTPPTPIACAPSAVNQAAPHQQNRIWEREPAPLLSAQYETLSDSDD
UniProt O15379: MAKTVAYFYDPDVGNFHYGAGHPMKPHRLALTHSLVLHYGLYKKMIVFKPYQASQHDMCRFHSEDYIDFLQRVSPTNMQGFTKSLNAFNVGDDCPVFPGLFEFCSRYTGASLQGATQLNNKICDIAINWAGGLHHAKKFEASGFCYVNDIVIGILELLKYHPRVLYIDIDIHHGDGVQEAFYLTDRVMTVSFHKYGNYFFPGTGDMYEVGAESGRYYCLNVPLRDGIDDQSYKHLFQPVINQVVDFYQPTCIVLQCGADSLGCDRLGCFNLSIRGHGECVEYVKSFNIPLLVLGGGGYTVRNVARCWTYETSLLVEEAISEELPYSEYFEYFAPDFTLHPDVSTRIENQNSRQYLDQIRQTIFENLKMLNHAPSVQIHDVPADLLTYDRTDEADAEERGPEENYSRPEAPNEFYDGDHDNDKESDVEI

How the values were obtained:
[1] = molecular target: GFP-tagged gamma-aminobutyric acid receptor-associated protein (GABARAP) (UniProt O95166); assay: co-IP; GFP-Trap agarose on lysates of HEK293T cells transfected with GFP, GFP-LC3B or GFP-GABARAP; lysis in 10 mM Tris pH 7.5, 150 mM NaCl, 0.5 mM EDTA, 0.5% NP-40, diluted to 0.1% NP-40; 1 h at +4 °C, six washes; eluates immunoblotted; cells with or without PIK-III (2.5 μM, 6 h) or co-expressed …
[2] = molecular target: T1, PPARα-HA (Peroxisome Proliferator Activated Receptor alpha, HA-tagged) (UniProt P23204); assay: co-IP; anti-HA antibody and Protein G Sepharose on 500 µg cleared extract of HEK293T cells transfected with PPARα-HA, with empty vector or Vps15-Flag; 1% NP-40 lysis buffer, +4 °C, four washes; endogenous Hdac3 immunoblotted
T1 sequence: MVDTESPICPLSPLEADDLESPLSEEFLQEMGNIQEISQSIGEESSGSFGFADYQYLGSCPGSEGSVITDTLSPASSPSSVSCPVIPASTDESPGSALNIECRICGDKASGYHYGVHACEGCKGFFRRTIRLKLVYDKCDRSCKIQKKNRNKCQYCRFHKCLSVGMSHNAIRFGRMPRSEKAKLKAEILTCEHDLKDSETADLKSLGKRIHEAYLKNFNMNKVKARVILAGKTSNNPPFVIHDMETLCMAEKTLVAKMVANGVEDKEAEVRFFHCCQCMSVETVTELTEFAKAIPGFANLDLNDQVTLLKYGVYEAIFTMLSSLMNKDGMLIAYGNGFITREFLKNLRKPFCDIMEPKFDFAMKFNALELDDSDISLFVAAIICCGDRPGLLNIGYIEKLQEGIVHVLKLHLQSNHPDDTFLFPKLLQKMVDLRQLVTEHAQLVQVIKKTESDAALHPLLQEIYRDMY

[3] = molecular target: T1, PPARα-HA (Peroxisome Proliferator Activated Receptor alpha, HA-tagged); assay: proximity ligation; Duolink in situ on fixed, permeabilised HEK293T cells transfected with PPARα-HA with or without Vps15-Flag; primary antibodies to Hdac3 and to the HA tag

binding [1] | binding [2] | binding [3] | Substance
binds | – | – | Nuclear receptor co-repressor 1 (NCoR1), endogenous in HEK293T cells (from UniProt O75376 1-2440)
binds | binds | binds | Histone Deacetylase 3 (Hdac3), endogenous in HEK293T cells (from UniProt O15379 1-428)
